Data: PubChem BioAssay AID602346 (Broad Institute, 2012)
Values joined by “and” are separate entries in the source; they are usually repeats but may differ in a detail not shown here. Equal entries are not always repeated. The campaign covered roughly 340,000 compounds. About 1,200 (0.35%) were called active. The shares of active, inactive and inconclusive entries below differ from those in the screen. Rule as the data show it: active = inhibition above about 50% (passing the limit was not always enough); inconclusive = no clear call, values can overlap the other calls; inactive = below about 31%.

test: blockers of Vif multimerization in cells – imaging, HEK293T, single point, primary screen (AID 602346); details: Vif self-association by quenched fluorescence, 24 h, at 7.49 µM, stronger effect = higher value

Row | Structure (SMILES) | inhibition
1 | COc1ccccc1C(=O)NC(=O)CSc1nnc(N)s1 | inconclusive: 34.6%
2 | Cc1ccc(C(C(=O)Nc2ccc3c(c2)OCO3)N(C)C(=O)Cc2c[nH]c3ccccc23)cc1 (configuration not stated) | inconclusive: 45%
3 | COc1ccc(S(=O)(=O)Nc2cccc3ccc(O)cc23)cc1 | inconclusive: 48.5%
4 | NC1=C(c2ccc([N+](=O)[O-])cc2)C(=O)CO1 | inactive: 0.664%
5 | NS(=O)(=O)c1ccc(N2N=C(c3ccccc3)CC2c2cccc(F)c2)cc1 (configuration not stated) | inconclusive: 29.1%
6 | Cc1cc(C)cc(OCC(=O)N2CCN(c3ncccn3)CC2)c1 | inactive: 8.75%
7 | CN1CCc2nc(SCCOc3ccccc3)c(C#N)cc2C1 | inconclusive: 44.7%
8 | Cc1oc(-c2ccc(Cl)cc2)nc1CN1CCCC(C(=O)N2CCOCC2)C1 (configuration not stated) | inactive: -6.89%
9 | CC1CCN(c2ccc3c(c2)S(=O)(=O)c2cccc(C(=O)NC4CCCCC4)c2C3=O)CC1 | active: 50.7%
10 | CCCNc1ccc(C(=O)OCC)cc1[N+](=O)[O-] | inconclusive: 42.9%
11 | CCc1nc2ccc(F)cc2c(C(=O)NC2CCCCC2C)c1C (configuration not stated) | active: 53.9%
12 | CCOC(=O)c1c(C)nc2sc(C(=O)Nc3ccc(OC)cc3)c(N)c2c1-c1ccc(OC)cc1 | inactive: 8.36%
13 | COc1ccc(S(=O)(=O)N2CCCCC2)cc1NC(=O)c1ccccc1 | inactive: -6.45%
14 | N#Cc1cccc(NC(=O)COC(=O)c2ccccc2C(=O)c2ccc(Cl)c([N+](=O)[O-])c2)c1 | inconclusive: 46.4%
15 | COc1cc2c(cc1NC(=O)COC(=O)CNS(=O)(=O)c1ccc(C)cc1)oc1ccccc12 | inactive: 4.69%
16 | COc1cc(N2C(=O)CSC2=S)cc(OC)c1OC | inconclusive: 30.4%
17 | OC1(c2ccc3c(c2)OCO3)CCN(Cc2ccccn2)CC1 | inconclusive: 31.9%
18 | CCOc1ccc(N(CC(=O)NN=C2CCN(C)CC2)S(C)(=O)=O)cc1 | inconclusive: 27.8%
19 | O=C(COc1ccccc1Cl)NC1CC1 | inactive: -0.622%

Row | Structure (SMILES) | inhibition
20 | CC(=O)Oc1cc(C(=O)OCC(=O)NC23CC4CC(CC(C4)C2)C3)cc(OC(C)=O)c1OC(C)=O | active: 67.2%
21 | CCOc1cc(/C=C(\C(=O)O)c2ccc(S(=O)(=O)N3CCCC3)s2)ccc1OC | inconclusive: 33.9%
22 | COCCn1cnnc1SCC(=O)Nc1ccc(Br)cc1F | inconclusive: 34.4%
23 | C/C(=N/NC(=O)CNC(=O)/C=C/c1ccco1)c1ccc(Cl)cc1 | inactive: -3.23%
24 | COc1ccc(OCCC(=O)OCC(=O)Nc2cccc(S(=O)(=O)N3CCCCC3)c2)cc1 | inconclusive: 30.1%
25 | COc1ccccc1C(=O)NC(=O)COc1cc(Cl)ccc1Cl | inconclusive: 37.7%
26 | COc1c(/C=C2\SC(=Nc3ccccc3Cl)NC2=O)cccc1[N+](=O)[O-] | inconclusive: 38.9%
27 | Cc1nnc(SCCn2c(N3CCN(C)CC3)nc3c2c(=O)[nH]c(=O)n3C)s1 | inconclusive: 21.6%
28 | CCOc1ccc(C(C)=O)cc1COC(=O)c1cc([N+](=O)[O-])ccc1N1CCOCC1 | active: 71.4%
29 | COc1cc([N+](=O)[O-])ccc1-c1ccc(/C=N\n2cnnc2)o1 | active: 177%
30 | O=C(Nc1ccc(S(=O)(=O)Nc2ccccn2)cc1)c1cccc(Cl)c1 | inconclusive: 35.4%
31 | CCCCC(=O)NC(c1ccc(C(C)C)cc1)c1ccc2cccnc2c1O (configuration not stated) | inactive: -15.5%
32 | CCC(=O)Nc1ccc(S(=O)(=O)Nc2c(C)nc3nc[nH]n3c2=O)cc1 | inconclusive: 41%
33 | CCCCCCn1c(N(CC)CC)nc2c1c(=O)[nH]c(=O)n2C | active: 51.7%
34 | CNc1ccccc1C(=O)OCC(=O)N1CCc2ccccc2C1 | inconclusive: 44.4%
35 | CC(NS(=O)(=O)c1cccc(Cl)c1F)[C@H](O)c1ccccc1 (some centres not stated) | inconclusive: 48.3%
36 | Cc1c(C=O)c2ccccn2c1C(=O)c1ccc(Cl)c([N+](=O)[O-])c1 | inactive: -0.549%
37 | CCc1ccc(NC(=O)c2cnn3c(C(F)F)cc(C)nc23)cc1 | inconclusive: 43%
38 | O=C(N=c1ccn(-c2nc3ccccc3nc2NS(=O)(=O)c2ccc(Cl)cc2)cc1)c1cccs1 | active: 82.5%

A few values from the list:
Entry for CCC(=O)Nc1ccc(S(=O)(=O)Nc2c(C)nc3nc[nH]n3c2=O)cc1 under inhibition: inconclusive: 41%
Entry for NC1=C(c2ccc([N+](=O)[O-])cc2)C(=O)CO1 under inhibition: inactive: 0.664%
Entry for CCOC(=O)c1c(C)nc2sc(C(=O)Nc3ccc(OC)cc3)c(N)c2c1-c1ccc(OC)cc1 under inhibition: inactive: 8.36%
Entry for CCCCCCn1c(N(CC)CC)nc2c1c(=O)[nH]c(=O)n2C under inhibition: active: 51.7%
Entry for Cc1c(C=O)c2ccccn2c1C(=O)c1ccc(Cl)c([N+](=O)[O-])c1 under inhibition: inactive: -0.549%

(more compounds)

Row | Structure (SMILES) | inhibition
39 | CCn1nc(C)c(/C=N/NC(=O)Cn2nnc(N)n2)c1C | active: 59.1%
40 | O=C(CSc1ccc(-c2ccco2)nn1)c1cccc([N+](=O)[O-])c1 | inconclusive: 33.6%
41 | O=C1CCN(c2ccc([N+](=O)[O-])cc2F)CC1 | inactive: 5.3%
42 | COc1cc2ccccc2cc1C(=O)Nc1ccc(Cc2ccncc2)cc1 | inactive: -9.14%
43 | CCOC(=O)CC1C(=O)NCCN1C(=O)c1ccc(F)cc1F (configuration not stated) | inconclusive: 33.4%
44 | COc1ccc(-c2cccc(-c3cc(=O)oc4cc5c(cc34)OCO5)c2)cc1 | inconclusive: 36.6%
45 | CC(=O)Oc1ccc(-c2csc(Nc3cccc(C)n3)n2)cc1 | inactive: -2.23%
46 | Cc1c(Cl)cccc1N1C(=O)CC(N(O)c2ccccc2)C1=O (configuration not stated) | inactive: 6.89%
47 | CCn1cc(Br)c(C(=O)Nc2ccc(OC)cc2)n1 | inconclusive: 45.1%
48 | O=C(COC(=O)CCS(=O)(=O)c1ccc(F)cc1)NC1CCCCC1 | inconclusive: 37.9%
49 | CCOc1cc2c(cc1C=O)OC(C)C2 (configuration not stated) | inconclusive: 27.3%
50 | C=CCN(CC(=O)NC1CCS(=O)(=O)C1)S(=O)(=O)c1ccccc1C(F)(F)F (configuration not stated) | inconclusive: 34.5%
51 | C/C(N)=C(/C#N)C(=O)CSc1nnc(Cc2ccccc2F)n1N | inactive: 2.28% and inactive: 0.078%
52 | CC(=O)Nc1ccccc1-c1nnn(CC(=O)Nc2ccc3c(c2)OCCO3)n1 | inactive: -10.5%
53 | O=C(NCc1cccc(Cl)c1)C1=CC=CN2CCS(=O)(=O)N=C12 | active: 52.6%
54 | Cc1nc(N)nc(N)c1CCCc1ccc(Cl)c(Cl)c1 | inconclusive: 49.2%
55 | Cc1cccc(S(=O)(=O)NC(=O)C2(C)CCN2C(=O)c2cccc(F)c2)c1 (configuration not stated) | inconclusive: 31.9%
56 | O=C(CSc1nc2ccccc2c(=O)n1Cc1ccco1)c1ccccc1 | inactive: -11.2%
57 | Cc1cc(NC(=O)CSc2nnc(CNC(=O)c3ccc(C(C)(C)C)cc3)o2)no1 | inactive: -4.5%
